Some of the results follow. Further columns of the screen follow, without active or inactive calls. Most of these compounds were active or inconclusive in the main read-out, so they are no random draw. Potencies come from curve fits of mixed quality, noted in brackets.

From PubChem BioAssay AID493014 (National Center for Advancing Translational Sciences (NCATS), 2011) come the findings set out here.

The assay is described as follows: qHTS Assay to Find Inhibitors of Chronic Active B-Cell Receptor Signaling. The settings on record: ABC-DLBCL IkBa-CBG/CBR reporter, luminescence ratio (green luciferase fused to IkBa over red control in TMD8 lymphoma cells), 4 h. The method, boiled down:
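TMD8 ABC-DLBCL cells carrying doxycycline-inducible green luciferase fused to IkappaBalpha plus unfused red luciferase were exposed to compounds (up to 46 uM) for 4 hrs at 37C. Activity came from the overlap-corrected green/red luminescence ratio.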

Where [1] appears, read: measured here: CBR red luminescence, cell number.
The mark [2] stands for this setting: measured here: IkBa-CBG green luminescence.

Take `O=c1c2ccccc2c(C=Nc2ccccc2O)c(O)n1-c1nccs1`: the AC50 under setting [1] is 7.08 µM [falling, partial curve, poor fit]. Still for that read-out and setting: the same measure for `O=C(CC1C(=O)CCCC1=O)c1ccccc1`: 35.5 µM [falling, single point]. Take `Cc1ccc(NC(=O)C(=O)N2CCCC2)cc1Cl`: the AC50 under setting [1] was 0.092 µM [falling, full curve, poor fit]. Still for that read-out and setting: to `CCOC(=O)C1(CCOc2ccccc2)CCN(Cc2ccc(-n3cccn3)cc2)CC1` belongs 3.16 µM [rising, partial curve, poor fit]. `COc1ccc(NS(=O)(=O)c2ccc3c(c2)CCC(=O)N3)cc1O`: the AC50 under setting [1] is 3.66 µM [rising, single point]. As to `CC(=O)c1cc2c(cc1NC(=O)CSc1nc3ccccc3[nH]1)OCO2`, the AC50 under setting [2] was 18.4 µM [rising, partial curve, poor fit]. Turning to `O=C(Nc1cc2c(cc1C(=O)O)OCCCO2)c1ccc(F)cc1F`, the AC50 under setting [1] was 7.08 µM [falling, full curve]. The same measure, in the same setting: to `CCOC(=O)c1ccc(NC(=O)C2CCCN(S(=O)(=O)c3ccc(F)cc3)C2)cc1` (centres undefined) belongs 8.2 µM [falling, single point]. On the same count and under the same terms, to `CCOC(=O)C1C(=O)CC(C)(O)C(C(=O)OCC)C1c1ccc(Br)cc1` (centres undefined) belongs 7.94 µM [falling, partial curve, poor fit]; to `O=C(NN=C1C2CC3CC1CC(Cl)(C3)C2)c1ccccn1`, 12.6 µM [falling, partial curve]. Consider `CC(=Nc1ccccc1)c1sc2ccccc2c1O`, for which the AC50 under setting [1] is 0.0731 µM [rising, full curve, poor fit]. On the same count and under the same terms, to `COC(=O)COc1ccc(S(=O)(=O)Nc2ccc(C(N)=O)cc2)cc1C` belongs 29.1 µM [falling, single point]; to `CC(=O)c1ccc(OCC(O)CN2CCN(CCN3C(=O)c4cccc5cccc(c45)C3=O)CC2)cc1` (centres undefined), 16.4 µM [falling, partial curve, poor fit]; to `O=C1CN(C(=O)c2ccc(Br)o2)C(c2ccccc2)c2cc(Cl)ccc2N1` (centres undefined), 20 µM [falling, single point].

Regarding `CCN1CCN(CCNC(=O)C2CCCN(Cc3nc(-c4cccc(Cl)c4)oc3C)C2)CC1` (centres undefined), the concentration at half-maximal activity (AC50) under setting [1] is 6.51 µM [rising, single point]. Still for that read-out and setting: the same measure for `O=C(COC(=O)c1ccccc1C(=O)OCC(=O)NCCc1c[nH]c2ccccc12)NCCc1c[nH]c2ccccc12`: 18.4 µM [falling, partial curve, poor fit]; for `O=C(CSc1ccc(Cl)cc1)N/N=C/c1cccnc1`: 5.62 µM [rising, partial curve, poor fit]. Still for that read-out and setting: to `O=C(/C=C/c1cn(CC(O)CN2CCCCCC2)c2ccccc12)c1cccs1` (centres undefined) belongs 29.1 µM [falling, single point]; to `O=C(Nc1nccs1)c1cc(-c2ccccn2)nc2c(Cl)cccc12`, 2 µM [falling, partial curve, poor fit]; to `Cc1ccc(NC(=O)c2ccccc2-c2ccc(C(F)(F)F)cc2)cc1S(=O)(=O)N1CCOCC1`, 29.1 µM [falling, single point]. As for `O=C(N/N=C/c1cccc2cccnc12)[C@H]1C[C@@H]1c1ccccc1`, the AC50 under setting [1] is 11.2 µM [falling, single point]. Still for that read-out and setting: to `O=C(NC1(C(F)(F)F)NC(=O)N(C2CCCCC2)C1=O)C1CC1` (centres undefined) belongs 0.631 µM [rising, full curve, poor fit]; to `O=C(CSc1nc(SCC(=O)NCc2ccccc2)n(-c2ccccc2)n1)NCc1ccccc1`, 6.51 µM [falling, partial curve].

Regarding `COc1ccc2oc(-c3ccccc3)c(C(=O)O)c2c1`, the AC50 under setting [1] is 14.1 µM [falling, partial curve, poor fit].

On to `Cc1ccc(CSc2nc3nc(C)cc(C)c3c(=O)[nH]2)cc1`, for which the AC50 under setting [1] is 35.5 µM [falling, single point]. As for `CSc1nc(N)nc(SCC(=O)c2ccc(C)cc2)c1C#N`, the AC50 under setting [1] was 6.31 µM [falling, partial curve]. Consider `CC(C)(NO)/C(=N\O)c1ccc(Cl)cc1`, for which the AC50 under setting [1] was 12.6 µM [rising, partial curve, poor fit]. Still for that read-out and setting: the same measure for `COc1ccc(C2=NN(C(=O)CCC(=O)O)C(c3ccccc3OC)C2)cc1` (centres undefined): 14.1 µM [falling, partial curve]. On to `Fc1ccccc1COc1ccccc1CNCc1ccncc1`, for which, under setting [1], the AC50 was 28.2 µM [falling, single point]. On to `O=C(O)CNC(=O)C(CS)Cc1ccccc1` (centres undefined), for which, under setting [2], the AC50 was 4.11 µM [falling, partial curve, poor fit]. Take `O=C(CSCc1ccccc1Cl)N1CCN(c2ccccn2)CC1`: the AC50 under setting [1] was 14.6 µM [rising, partial curve, poor fit]. Still for that read-out and setting: to `Cc1ccc2c(c1)C1CC(C)(O2)N(c2cccc(C(=O)N3CCN(c4ccccn4)CC3)c2)C(=O)N1` (centres undefined) belongs 0.251 µM [rising, full curve, poor fit]; to `CCCN(c1ccccc1F)S(=O)(=O)c1cc(-c2cc(C)no2)ccc1OC`, 14.1 µM [falling, partial curve, poor fit].

`Cc1nonc1C(=O)N/N=C/c1ccc(O)c(O)c1`: the AC50 under setting [1] was 29.1 µM [falling, single point]. Still for that read-out and setting: the same measure for `O=C(C1CCCCC1)N1CCN(S(=O)(=O)c2ccc(Br)cc2)CC1`: 0.562 µM [falling, full curve, poor fit]; for `CCN(CC)C(=O)CC(c1ccc(N(C)C)cc1)c1c(OC)cc(OC)c2ccc(=O)oc12` (centres undefined): 0.355 µM [rising, full curve, poor fit]; for `O=[N+]([O-])c1cccc(CN2CCN(c3ncccn3)CC2)c1`: 35.5 µM [rising, single point].

Consider `COc1ccc(NC(=O)Cn2nnc(C(=O)NCc3ccc4c(c3)OCO4)c2N)c(OC)c1`, for which the AC50 under setting [1] was 17.8 µM [rising, single point]. Regarding `N#Cc1c(N2C(=O)c3ccc(C(=O)O)cc3C2=O)sc2c1CCCC2`, the AC50 under setting [1] is 17.8 µM [falling, partial curve, poor fit]. The same measure, in the same setting: the same measure for `O=C(NCc1ccco1)C1CCN(Cc2ccc(F)cc2)CC1`: 32.6 µM [falling, single point]; for `CS(=O)(=O)N(CC(=O)Nc1ccc(F)c(F)c1)c1cccc([N+](=O)[O-])c1`: 3.66 µM [falling, partial curve, poor fit]. As to `O=C1N/C(=N\N=C\c2cccs2)SC1Cc1cccc(Cl)c1` (centres undefined), the AC50 was 7.31 µM [rising, partial curve] under setting [1] and 20.6 µM [falling, single point] under setting [2]. As to `Cc1ccc2c(c1)-n1c(nc3ccc(C)cc3c1=O)C(Cc1ccc(O)cc1)NC2=O` (centres undefined), the AC50 under setting [1] is 10.3 µM [rising, partial curve]. For `O=C(c1cn(-c2ccccc2)nc1-c1cccnc1)N1CCCCC1`, the concentration at half-maximal activity (AC50) under setting [1] was 10 µM [rising, partial curve, poor fit].

For `CCCNC(=O)Cc1c(C)n(C(=O)c2ccc(Cl)cc2)c2ccc(OC)cc12`, the AC50 under setting [1] is 35.5 µM [falling, single point]. On to `COc1ccc(NS(=O)(=O)c2cc(NC(=O)CNC(=O)c3cccc(OC)c3)ccc2C)cc1`, for which the AC50 under setting [1] is 3.66 µM [rising, full curve, poor fit] and the AC50 under setting [2] is 25.9 µM [falling, partial curve, poor fit]. On to `Cc1ccc(Cn2nnc3c(=O)[nH]c(C4CCN(S(=O)(=O)c5ccc(F)cc5)CC4)nc32)cc1`, for which the AC50 is 5.8 µM [falling, partial curve] under setting [1] and 18.4 µM [rising, partial curve] under setting [2]. For the compound `Cc1ccnc(NC(=O)CCC(=O)N(CC(=O)NC(C)(C)C)c2ccc3c(c2)OCO3)c1`, under setting [1], the AC50 is 0.112 µM [falling, full curve, poor fit]. Still for that read-out and setting: to `CC1=C(C(=O)N2CCCC(C(=O)c3cccc4ccccc34)C2)OCCO1` (centres undefined) belongs 15.8 µM [falling, single point]; to `CC1=C(C(=O)OCc2ccccc2)C(c2cccs2)NC(=O)N1CCCC(=O)O` (centres undefined), 16.4 µM [rising, single point]; to `COc1ccc(C(=O)NCC(=O)NCC(=O)OCC(=O)C(C)(C)C)cc1`, 7.31 µM [rising, partial curve, poor fit]. Still for that read-out and setting: to `O=C(Nc1ccc(-c2csnn2)cc1)C(Cl)(Cl)Cl` belongs 35.5 µM [falling, single point]; to `CCN(C(=O)c1ccccc1F)c1nc(-c2ccc(OC)cc2)cs1`, 12.6 µM [rising, partial curve]; to `COc1ccc(NC(=O)Nc2cc(C)ccc2F)cc1`, 23.1 µM [falling, partial curve]. Same read-out and setting: the same measure for `Cc1cccn2c(=O)c3cc(C(=O)NC(C)C)c(=N)n(Cc4ccncc4)c3nc12`: 2.59 µM [rising, partial curve, poor fit]. `Cc1cc(C)n(CCC(=O)Nc2ccc3c(c2)OCCO3)n1`: the AC50 under setting [1] is 22.4 µM [falling, partial curve, poor fit].

On to `C=CCn1c(SCC(O)Cn2c3ccccc3c3ccccc32)nnc1-c1ccco1` (centres undefined), for which, under setting [1], the AC50 is 0.366 µM [falling, full curve, poor fit]. Same read-out and setting: to `COc1ccc(N=C(NN)c2ccc3ccccc3n2)cc1` belongs 3.66 µM [rising, partial curve, poor fit]; to `CCOC(=O)c1c(NC(=O)COC(=O)c2ccccn2)sc2c1CCC2`, 29.1 µM [rising, single point]; to `Cc1cc(C)cc(OCC(=O)O/N=C(\N)c2ccccn2)c1`, 20.6 µM [falling, partial curve].

Turning to `COc1ccccc1N(CC(O)Cn1c2ccccc2c2ccccc21)S(=O)(=O)c1ccccc1` (centres undefined), under setting [1], the half-maximal activity concentration (AC50) was 16.4 µM [falling, partial curve, poor fit].
